Test results published in patent publication US9527830B2 (Merck Sharp & Dohme Corp., priority 2011, dated 2016).
pIC50: −log10 of the molar value. Some of these results come from one statement about several compounds together.

Molecular target: T1, hROMK (hKir1.1) (Homo sapiens, UniProt P48048)
T1 construct: expressed in transfected cells
T1 sequence (P48048 1-391): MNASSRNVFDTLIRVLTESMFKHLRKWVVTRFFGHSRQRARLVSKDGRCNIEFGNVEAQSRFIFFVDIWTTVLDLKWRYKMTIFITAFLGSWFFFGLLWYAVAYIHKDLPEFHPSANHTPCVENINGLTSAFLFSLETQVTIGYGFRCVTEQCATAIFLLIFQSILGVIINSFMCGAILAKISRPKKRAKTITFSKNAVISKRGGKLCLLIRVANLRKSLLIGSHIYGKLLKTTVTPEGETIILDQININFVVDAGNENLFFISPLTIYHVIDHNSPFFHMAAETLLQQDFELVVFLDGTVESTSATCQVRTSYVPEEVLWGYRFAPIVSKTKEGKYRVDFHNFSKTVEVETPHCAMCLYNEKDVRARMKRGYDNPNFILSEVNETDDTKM
Assay: Thallium Flux Assay (FluxOR, FLIPR-Tetra)
Format: cell-based
Settings: HEK293 cells stably expressing hROMK; potency ranges
Procedure: Several assays may be used to measure functional inhibition of the ROMK channel by compounds of the instant invention. One primary assay that can be used is a functional ^86Rb^+ efflux assay that measures the ability of ROMK to permeate ^86Rb^+, in the absence or presence of test compound. Under control conditions, cells loaded with ^86Rb^+ and incubated in Rb^+-free medium display a time-dependent efflux of the isotope, the rate of which depends on number of functional channels. When cells are incubated in the presence of a channel inhibitor, efflux of ^86Rb^+ is prevented in a concentration-dependent manner, and IC50 values of inhibition by compounds can be accurately determined. This assay has been established with cell lines expressing either human, rat or dog ROMK channels, and can operate in 96- or 384-well format. Importantly, the human, rat, and dog ^86Rb^+ efflux assays can be carried out in the presence of up to 100% serum allowing, therefore, an accurate estimation of the effect of protein binding on the inhibitory activity of compounds of interest. Another ROMK functional assay makes use of the ability of thallium to permeate through open ROMK channels and increase the fluorescence of a dye previously loaded into the cells. Under control conditions, cells loaded with dye and exposed to thallium-containing medium display a time-dependent increase in fluorescence, the rate of which depends on number of functional channels. When cells are incubated in the presence of a channel inhibitor, the increase in fluorescence is attenuated in a concentration-dependent manner, and IC50 values of inhibition by compounds can be accurately determined. This assay has been established with cell lines expressing either human, or rat ROMK channels, and operates in 384-well format. Another assay for evaluation of the compounds of the instant invention and for evaluation of mechanism of action of compounds of Formula I relies on the measurement of the electrical current that is generated as potassium permeates through the channel. For these electrophysiological experiments, three different platforms, IonWorks, QPatch, or manual patch clamp, are used, depending on the experimental protocol under consideration. IonWorks operates in a 384-well format and allows accurate determination of IC50 values for inhibitors.
HEK293 cells stably expressing hROMK (hKir1.1) were grown at 37° C. in a 10% CO2 humidified incubator in complete growth media: Dulbecco's Modified Eagle Medium supplemented with non-essential amino acids, Penicillin/Streptomycin/Glutamine, G418 and FBS. At >80% confluency, media was aspirated from the flask and rinsed with 10 ml Calcium/Magnesium-free PBS. 5 ml of 1× trypsin (prepared in Ca/Mg Free PBS) was added to T-225 flask and flask returned to 37° C./CO2 incubator for 2-3 minutes. To dislodge the cell, the side of the flask was gently banged by hand. Cells were completely triturated and then transferred to 25 ml complete media, and centrifuged at 1,500 rpm for 6 min followed by resuspension in complete growth media and cell concentration determined. For typical re-seeding, 4E6 cells/T-225 flask attained >80% confluency in 4 days. Under ideal growth conditions and appropriate tissue culture practices, this cell line was stable for 40-45 passages.
FluxOR™ Kit Components (Invitrogen F10017)
• FluxOR™ Reagent (Component A) • FluxOR™ Assay Buffer (Component B)—10× Concentrate • PowerLoad™ Concentrate (Component C)—100× Concentrate • Probenecid (Component D)—Lyophilized sample was kept at −20° C. Water soluble, 100× after solubilization in 1 ml water. Store at 4° C. • FluxOR™ Chloride-free Buffer (Component E)—5× Concentrate • Potassium sulfate (K2SO4) Concentrate (Component F)—125 mM in water. Stored at 4° C. • Thallium sulfate (Tl2SO4) Concentrate (Component G)—50 mM in water. […]

## Cc1c(C(O)CC2CCN(C(=O)Cc3ccc(-n4cnnn4)nc3)CC2)ccc2c1COC2=O (racemic) [Example 110, 5-[1-Hydroxy-2-(1-{[6-(1H-tetrazol-1-yl)pyridin-3-yl]acetyl}piperidin-4-yl)ethyl]-4-methyl-2-benzofuran-1(3H)-one]
  pIC50: ≥ 6.15

## Cc1c([C@@H](O)CN2CCC(CN(C)C[C@H](O)c3ccc4c(c3)COC4=O)CC2)ccc2c1COC2=O [Example 91, 5-{(1R)-1-Hydroxy-2-[4-({[(2R)-2-hydroxy-2-(1-oxo-1,3-dihydro-2-benzofuran-5-yl)ethyl](methyl)amino}methyl)piperidin-1-yl]ethyl}-4-methyl-2-benzofuran-1(3H)-one]
  pIC50: ≥ 6.15

## Cc1c([C@@H](O)CN2CCC(CN(C)C(CO)c3ccc4c(c3)COC4=O)CC2)ccc2c1COC2=O (stereo partly drawn) [Example 92, 5-{(1R)-1-Hydroxy-2-[4-({[2-hydroxy-1-(1-oxo-1,3-dihydro-2-benzofuran-5-yl)ethyl](methyl)amino}methyl)piperidin-1-yl]ethyl}-4-methyl-2-benzofuran-1(3H)-one]
  pIC50: ≥ 6.15

## Cc1c([C@@H](O)CN2CCC(CN(C)c3ccc(C#N)cn3)CC2)ccc2c1COC2=O [Example 93, 6-[({1-[(2R)-2-Hydroxy-2-(4-methyl-1-oxo-1,3-dihydro-2-benzofuran-5-yl)ethyl]piperidin-4-yl}methyl)(methyl)amino]pyridine-3-carbonitrile]
  pIC50: ≥ 6.15

## Cc1c(SCC2CCN(C[C@H](O)c3ccc4c(c3C)COC4=O)CC2)ccc2c1COC2=O [Example 94, 5-[({1-[(2R)-2-Hydroxy-2-(4-methyl-1-oxo-1,3-dihydro-2-benzofuran-5-yl)ethyl]piperidin-4-yl}methyl)sulfanyl]-4-methyl-2-benzofuran-1(3H)-one]
  pIC50: ≥ 6.15

## Cc1c(OCC2CCN(C[C@H](O)c3ccc4c(c3C)COC4=O)CC2)ccc2c1COC2=O [Example 95, 5-({1-[(2R)-2-Hydroxy-2-(4-methyl-1-oxo-1,3-dihydro-2-benzofuran-5-yl)ethyl]piperidin-4-yl}methoxy)-4-methyl-2-benzofuran-1(3H)-one]
  pIC50: ≥ 6.15

## Cc1c([C@@H](O)CN2CCC(C[S+]([O-])c3ccc4c(c3C)COC4=O)CC2)ccc2c1COC2=O (stereo partly drawn) [Example 96, 5-[({1-[(2R)-2-hydroxy-2-(4-methyl-1-oxo-1,3-dihydro-2-benzofuran-5-yl)ethyl]piperidin-4-yl}methyl)sulfinyl]-4-methyl-2-benzofuran-1(3H)-one]
  pIC50: ≥ 6.15

## Cc1c(C(CO)N2CCC(C[S+]([O-])c3ccc4c(c3C)COC4=O)CC2)ccc2c1COC2=O (centres unmarked) [Example 97, 5-[({1-[2-Hydroxy-1-(4-methyl-1-oxo-1,3-dihydro-2-benzofuran-5-yl)ethyl]piperidin-4-yl}methyl)sulfinyl]-4-methyl-2-benzofuran-1(3H)-one]
  pIC50: ≥ 6.15

## Cc1c(SCC2CCN(C(=O)Cc3ccc(-n4cnnn4)nc3)CC2)ccc2c1COC2=O [Example 98, 4-Methyl-5-{[(1-{[6-(1H-tetrazol-1-yl)pyridin-3-yl]acetyl}piperidin-4-yl)methyl]sulfanyl}-2-benzofuran-1(3H)-one]
  pIC50: ≥ 6.15

## Cc1c([C@@H](O)CN2CCC(CS(=O)(=O)c3ccc4c(c3C)COC4=O)CC2)ccc2c1COC2=O [Example 99]
  pIC50: ≥ 6.15

## Cc1c([C@@H](O)CN2CCC(CSc3ccc(C#N)cn3)CC2)ccc2c1COC2=O [Example 100, 6-[({1-[(2R)-2-Hydroxy-2-(4-methyl-1-oxo-1,3-dihydro-2-benzofuran-5-yl)ethyl]piperidin-4-yl}methyl)sulfanyl]pyridine-3-carbonitrile]
  pIC50: ≥ 6.15

## Cc1c([C@@H](O)CN2CCC(C[S+]([O-])c3ccc(C#N)cn3)CC2)ccc2c1COC2=O (stereo partly drawn) [Example 101, 6-[({1-[(2R)-2-Hydroxy-2-(4-methyl-1-oxo-1,3-dihydro-2-benzofuran-5-yl)ethyl]piperidin-4-yl}methyl)sulfinyl]pyridine-3-carbonitrile]
  pIC50: ≥ 6.15

## Cc1c([C@@H](O)CN2CCC(F)(COc3ccc(C#N)cn3)CC2)ccc2c1COC2=O [Example 102, 6-({4-Fluoro-1-[(2R)-2-hydroxy-2-(4-methyl-1-oxo-1,3-dihydro-2-benzofuran-5-yl)ethyl]piperidin-4-yl}methoxy)pyridine-3-carbonitrile]
  pIC50: ≥ 6.15

## Cc1c([C@@H](O)CN2CCC(CSc3ccc4c(c3)CCOC4=O)CC2)ccc2c1COC2=O [Example 103, 6-[({1-[(2R)-2-Hydroxy-2-(4-methyl-1-oxo-1,3-dihydro-2-benzofuran-5-yl)ethyl]piperidin-4-yl}methyl)sulfanyl]-3,4-dihydro-1H-isochromen-1-one]
  pIC50: ≥ 6.15

## Cc1c([C@@H](O)CN2CCC(C[S+]([O-])c3ccc4c(c3)CCOC4=O)CC2)ccc2c1COC2=O (stereo partly drawn) [Example 104, 6-[({1-[(2R)-2-Hydroxy-2-(4-methyl-1-oxo-1,3-dihydro-2-benzofuran-5-yl)ethyl]piperidin-4-yl}methyl)sulfinyl]-3,4-dihydro-1H-isochromen-1-one]
  pIC50: ≥ 6.15

## Cc1c([C@@H](O)CN2CCC(COc3ccc(C#N)cn3)(c3ccccc3)CC2)ccc2c1COC2=O [Example 105]
  pIC50: ≥ 6.15

## Cc1c([C@@H](O)CN2CC3C(COc4ccc(C#N)cn4)C3C2)ccc2c1COC2=O (stereo partly drawn) [Example 106, 6-({3-[(2R)-2-Hydroxy-2-(4-methyl-1-oxo-1,3-dihydro-2-benzofuran-5-yl)ethyl]-3-azabicyclo[3.1.0]hex-6-yl}methoxy)pyridine-3-carbonitrile]
  pIC50: ≥ 6.15

## Cc1c([C@@H](O)CN2CCC(C)(COc3ccc(C#N)cn3)CC2)ccc2c1COC2=O [Example 107]
  pIC50: ≥ 6.15

## Cc1c([C@@H](O)CN2CCC(F)(CSc3ccc(C#N)cn3)CC2)ccc2c1COC2=O [Example 108]
  pIC50: ≥ 6.15

## Cc1c([C@@H](O)CN2CCC(CS(=O)(=O)c3ccc4c(c3)CCOC4=O)CC2)ccc2c1COC2=O [Example 109, 6-[({1-[(2R)-2-Hydroxy-2-(4-methyl-1-oxo-1,3-dihydro-2-benzofuran-5-yl)ethyl]piperidin-4-yl}methyl)sulfonyl]-3,4-dihydro-1H-isochromen-1-one]
  pIC50: ≥ 6.15

## Cc1c([C@@H](O)CN2CCC(Nc3ccc(C#N)cn3)CC2)ccc2c1COC2=O [Example 111, (R)-6-(1-(2-Hydroxy-2-(4-methyl-1-oxo-1,3-dihydroisobenzofuran-5-yl)ethyl)piperidin-4-ylamino)nicotinonitrile]
  pIC50: ≥ 6.15

## Cc1c([C@@H](O)CN2[C@@H]3CC[C@H]2CC(Nc2ccc(C#N)cn2)C3)ccc2c1COC2=O (stereo partly drawn) [Example 112, 6-((1R,5S)-8-((R)-2-Hydroxy-2-(4-methyl-1-oxo-1,3-dihydroisobenzofuran-5-yl)ethyl)-8-azabicyclo[3.2.1]octan-3-ylamino)nicotinonitrile]
  pIC50: ≥ 6.15

## Cc1c([C@@H](O)CN2CC3C(C2)C3Nc2nccn3cnnc23)ccc2c1COC2=O (stereo partly drawn) [Example 113, 5-((1R)-2-(6-([1,2,4]Triazolo[4,3-a]pyrazin-8-ylamino)-3-azabicyclo[3.1.0]hexan-3-yl)-1-hydroxyethyl)-4-methylisobenzofuran-1(3H)-one]
  pIC50: ≥ 6.15
